{"sequences": {"note": "Sequences of proteins named here, by UniProt entry; tags and fusion partners are left off. A change or cut given only in a name is not applied to a line headed by its entry.", "UniProt P69720": "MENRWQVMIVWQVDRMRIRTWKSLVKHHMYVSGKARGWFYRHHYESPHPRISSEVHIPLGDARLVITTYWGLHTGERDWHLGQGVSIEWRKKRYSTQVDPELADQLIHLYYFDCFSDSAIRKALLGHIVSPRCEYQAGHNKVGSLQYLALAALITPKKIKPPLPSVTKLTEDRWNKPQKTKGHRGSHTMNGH", "UniProt P69721": "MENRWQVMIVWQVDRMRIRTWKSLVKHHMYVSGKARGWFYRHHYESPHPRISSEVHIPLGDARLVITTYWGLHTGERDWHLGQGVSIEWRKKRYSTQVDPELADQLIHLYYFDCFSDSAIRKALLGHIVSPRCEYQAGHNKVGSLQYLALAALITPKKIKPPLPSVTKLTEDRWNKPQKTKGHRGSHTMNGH", "UniProt P69722": "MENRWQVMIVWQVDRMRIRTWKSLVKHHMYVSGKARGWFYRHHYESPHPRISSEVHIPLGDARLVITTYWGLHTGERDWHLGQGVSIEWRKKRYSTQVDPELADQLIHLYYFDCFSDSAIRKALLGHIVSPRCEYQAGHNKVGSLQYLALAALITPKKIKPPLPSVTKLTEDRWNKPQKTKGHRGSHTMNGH", "UniProt P69723": "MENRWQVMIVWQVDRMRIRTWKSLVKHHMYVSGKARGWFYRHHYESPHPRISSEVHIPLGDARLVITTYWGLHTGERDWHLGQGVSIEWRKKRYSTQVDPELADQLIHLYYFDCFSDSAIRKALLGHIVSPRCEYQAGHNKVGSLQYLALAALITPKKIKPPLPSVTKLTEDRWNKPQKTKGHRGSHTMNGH", "UniProt Q9HC16": "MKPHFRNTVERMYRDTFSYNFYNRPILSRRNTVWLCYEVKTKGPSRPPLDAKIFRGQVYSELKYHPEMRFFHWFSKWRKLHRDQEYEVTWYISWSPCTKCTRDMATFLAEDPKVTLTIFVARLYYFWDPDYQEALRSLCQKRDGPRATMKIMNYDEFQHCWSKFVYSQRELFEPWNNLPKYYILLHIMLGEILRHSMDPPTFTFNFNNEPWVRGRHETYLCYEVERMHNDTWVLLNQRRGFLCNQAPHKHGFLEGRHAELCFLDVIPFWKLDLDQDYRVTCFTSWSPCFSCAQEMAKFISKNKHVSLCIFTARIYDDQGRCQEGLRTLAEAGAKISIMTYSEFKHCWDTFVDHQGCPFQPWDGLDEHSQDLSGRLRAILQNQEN"}, "source": "PubChem BioAssay AID1117319", "about": "(Southern Research Institute, 2015)", "note": "The campaign covered roughly 260,000 compounds. About 1,500 (0.58%) were called active. Inconclusive results, whose numbers are uncertain, are shown with a selection of clear calls.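 Rule for the calls: active = inhibition above a set limit at one or more doses, reproduced on every date tested; inconclusive = results disagree between test dates, or hit never tested in dose response; inactive = the rest.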", "data": [{"target": "Virion infectivity factor (Human immunodeficiency virus type 1 group M subtype B (isolate BH10)) + Virion infectivity factor (Human immunodeficiency virus type 1 group M subtype B (isolate BRU/LAI)) + Virion infectivity factor (Human immunodeficiency virus type 1 group M subtype B (isolate PCV12)) + Virion infectivity factor (Human immunodeficiency virus type 1 group M subtype B (isolate HXB2)) + DNA dC->dU-editing enzyme APOBEC-3G (Homo sapiens) (UniProt P69720+P69721+P69722+P69723+Q9HC16)", "assay": "inhibitors of Vif binding to APOBEC3G peptide, primary screen, biochemical, TR-FRET, GST-Vif 1-94, biotin-A3G peptide, dose response retest (AID 1117319);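 note: Vif residues 1-94 fused to GST binding biotinylated APOBEC3G peptide 110-148; 0% = full assay without inhibitor and 100% = GST in place of GST-Vif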", "details": "active compounds read high", "values": [{"smiles": "O=C1C=C(Nc2ccc(Cl)cc2)CC(c2ccc(Cl)cc2)C1", "note": "(configuration not stated)", "inhibition": "inconclusive: 46%"}, {"smiles": "C#CCN(C)CCCOc1ccc(Cl)cc1Cl", "inhibition": "inconclusive: 34.5%"}, {"smiles": "C=CCn1c(-c2ccc(Cl)cc2)c[nH]c1=S", "inhibition": "inconclusive: 37.2%"}, {"smiles": "CC(=O)C1=C(C)N(CC2CC2)C(=O)N[C@H]1c1ccccc1", "inhibition": "inconclusive: 36.4%"}, {"smiles": "COc1ccc2cc3c(N)c(C(=O)N4CCCC4)sc3nc2c1", "inhibition": "inconclusive: 38%"}, {"smiles": "CC1CCCCC1N=C1NC(C)(C)CS1", "note": "(configuration not stated)", "inhibition": "inconclusive: 47.9%"}, {"smiles": "CCCC(c1nnnn1Cc1ccccc1)N1CCN(c2ccccc2OC)CC1", "note": "(configuration not stated)", "inhibition": "inconclusive: 50.9%"}, {"smiles": "Cc1ccccc1C(=O)O/N=C(\\c1ccccc1)c1ccccn1", "inhibition": "inactive: 5.71%"}, {"smiles": "COc1cc(CCCN2C(=S)NC[C@@H]2CC2CCCCC2)cc(OC)c1OC", "inhibition": "inconclusive: 58%"}, {"smiles": "N#Cc1nc(-c2cccc3ccccc23)oc1N1CCCCC1", "inhibition": "inconclusive: 34.5%"}, {"smiles": "O=C(/C=C/c1ccco1)Nc1ccc(C(=O)N2CCOCC2)cc1", "inhibition": "inconclusive: 36.3%"}, {"smiles": "CC(=O)NCCC(=O)N1CCCC(CNC(=O)c2ccc(-c3ccccc3)cc2)C1", "note": "(configuration not stated)", "inhibition": "inconclusive: 36.1%"}, {"smiles": "O=C1C2C3CCC(C3)C2C(=O)N1CNc1ccccc1", "note": "(configuration not stated)", "inhibition": "inactive: -1.35%"}, {"smiles": "O=S(=O)(Cc1ccccc1)N1CCC(N2CCN(c3ccccc3)CC2)CC1", "inhibition": "inconclusive: 52.9%"}, {"smiles": "CCn1c(NC(=O)c2ccccc2)c(-c2cccs2)c(=O)c2ccccc21", "inhibition": "inconclusive: 49.8%"}, {"smiles": "CCOC(=O)N1CCN(C(=O)CSc2ccc(-c3ccncc3)nn2)CC1", "inhibition": "inconclusive: 42.9%"}, {"smiles": "CC(C)(C)c1cc(NC(=O)CCSc2nnc3ccccn23)cc(C(C)(C)C)c1", "inhibition": "inactive: -5.51%"}, {"smiles": "CCOc1ccc(N2CC(C(=O)Nc3ccc(S(=O)(=O)N4CCOCC4)cc3)CC2=O)cc1", "note": "(configuration not stated)", "inhibition": "inconclusive: 55.5%"}, {"smiles": "COc1cccc(CNC(=O)CN(c2cc(C)cc(C)c2)S(=O)(=O)c2c(C)noc2C)c1", "inhibition": "inconclusive: 45.5%"}, {"smiles": "Clc1ccccc1CSc1ncccn1", "inhibition": "inactive: -2.52%"}, {"smiles": "O=C(O)c1ccccc1C(=O)N1CC=C(c2ccccc2)CC1", "inhibition": "inconclusive: 38.4%"}, {"smiles": "Cc1cc(C(=O)COc2ccccc2C(N)=O)c(C)n1CC1CCCO1", "note": "(configuration not stated)", "inhibition": "inconclusive: 34.6%"}, {"smiles": "N#CC(C(N)=O)=C1CCC2(CC1)OCCCCO2", "inhibition": "inactive: 3.27%"}, {"smiles": "Cc1nnc(-c2ccccc2)nc1N1CCOCC1", "inhibition": "inconclusive: 35.5%"}, {"smiles": "Cc1cc(C)cc(OCC(=O)NN2C(=O)c3ccccc3C2=O)c1", "inhibition": "inactive: 2.37%"}, {"smiles": "COc1ccc2nc(N=Nc3ccc(O)c4ccccc34)sc2c1", "inhibition": "inconclusive: 49.3%"}, {"smiles": "CCc1c(C)n2nc(C)cc2[nH]c1=O", "inhibition": "inconclusive: 45.2%"}, {"smiles": "Oc1ccc(/C=N/Nc2cccc3cccnc23)c(O)c1", "inhibition": "inconclusive: 49%"}, {"smiles": "O=C(CSc1nnc(-c2ccc(Br)o2)n1Cc1ccccc1)c1ccccc1F", "inhibition": "inconclusive: 44%"}, {"smiles": "CCOC(=O)N1CCC(NC(=O)C2CCN(S(=O)(=O)c3ccc4c(c3)oc(=O)n4C)CC2)CC1", "inhibition": "inconclusive: 61.2%"}, {"smiles": "COc1ccc(S(=O)(=O)Nc2ccccc2C(=O)NCc2ccco2)cc1Br", "inhibition": "inconclusive: 60.5%"}, {"smiles": "CCn1c(-c2ccco2)nc2ccccc21", "inhibition": "inactive: 0.82%"}, {"smiles": "Cn1c2c(c(=O)n(C)c1=O)CN(Cc1ccc3c(c1)OCO3)CN2", "inhibition": "inconclusive: 35.7%"}, {"smiles": "CCCn1nc(C(=O)OCc2nc(N)nc(Nc3ccccc3C)n2)c2ccccc2c1=O", "inhibition": "inconclusive: 35.2%"}, {"smiles": "Cc1ccc(NC(=O)c2cc(N3C(=O)C=CC3=O)ccc2Cl)cc1C", "inhibition": "inconclusive: 40.9%"}, {"smiles": "COc1ccc(C2C(C#N)=C(N)N(c3cccnc3)C3=C2C(=O)CCC3)cc1Cn1cc([N+](=O)[O-])cn1", "note": "(configuration not stated)", "inhibition": "inconclusive: 37.5%"}, {"smiles": "O=[N+]([O-])c1ccc(SCCc2ccncc2)cc1", "inhibition": "inconclusive: 48.9%"}, {"smiles": "Cc1cccc(C)c1NC(=O)COC(=O)CN1C(=O)C2CCCCC2C1=O", "note": "(configuration not stated)", "inhibition": "inactive: -6.55%"}, {"smiles": "COc1ccc(-c2csc(/C(C#N)=C(\\O)CSc3nccn3C)n2)cc1OC", "inhibition": "inconclusive: 35.3%"}, {"smiles": "COC(=O)c1ccc(-c2nc(-c3cccs3)no2)cc1", "inhibition": "inconclusive: 59.6%"}, {"smiles": "O=C(COC(=O)c1ccccc1)Nc1cc(Cl)ccc1Oc1ccccc1", "inhibition": "inconclusive: 48.1%"}, {"smiles": "CCCN(Cc1cc2ccc(C)cc2[nH]c1=O)C(=O)c1ccccn1", "inhibition": "inconclusive: 47.5%"}, {"smiles": "Cc1cc(/C=N/Nc2ccc([N+](=O)[O-])cn2)c(C)n1-c1cccc(C(=O)O)c1", "inhibition": "inconclusive: 62.7%"}, {"smiles": "Cc1cc(C)c(S(=O)(=O)N(C)CC(=O)N2CCCCC2)c(C)c1", "inhibition": "inconclusive: 7.34%"}, {"smiles": "CN(C)S(=O)(=O)c1cc(NC(=O)CN2CCN(c3ccc(O)cc3)CC2)ccc1Cl", "inhibition": "inconclusive: 40.1%"}, {"smiles": "O=c1[nH]c(CSc2nnc(-c3ccccc3)n2C2CCCCC2)nc2ccccc12", "inhibition": "inconclusive: 44.6%"}, {"smiles": "COc1ccc(C(=O)COC(=O)C(C(C)C)N2C(=O)C3C4C=CC(C4)C3C2=O)cc1", "note": "(configuration not stated)", "inhibition": "inconclusive: 38.7%"}, {"smiles": "Cc1ccc(S(=O)(=O)/N=C(\\CSC(N)=O)Nc2ccccc2)cc1", "inhibition": "inconclusive: 46.7%"}, {"smiles": "COc1ccc(NC(=O)/C(Cl)=C(/Cl)S(=O)Cc2ccc(C)cc2)cn1", "note": "(configuration not stated)", "inhibition": "inconclusive: 59.8%"}, {"smiles": "Cc1ccc(-c2csc3ncn(-n4c(C)ccc4C)c(=O)c23)o1", "inhibition": "inconclusive: 50.3%"}, {"smiles": "CCCCOc1cc(=O)[nH]c(=O)[nH]1", "inhibition": "inconclusive: 42.3%"}, {"smiles": "CCOC(=O)c1nnn(-c2ccccc2C#N)c1C", "inhibition": "inconclusive: 43%"}, {"smiles": "CC(=O)C1C(=O)CC(C)(O)C(C(C)=O)C1c1ccc(N(C)C)cc1", "note": "(configuration not stated)", "inhibition": "inconclusive: 51.9%"}, {"smiles": "CCOc1cc(C)c(C(C)C)cc1S(=O)(=O)N1CCN(C)CC1", "inhibition": "inconclusive: 59.8%"}, {"smiles": "O=C(O)CCSCc1ccccc1F", "inhibition": "inconclusive: 35.2%"}, {"smiles": "COc1ccc(C(=O)N2CCN(c3c(C)cccc3C)CC2)cc1OC", "inhibition": "inconclusive: 39.5%"}, {"smiles": "CCOC(=O)c1cc2c(=O)n3cccc(C)c3nc2n(Cc2ccco2)c1=NC(=O)c1cccnc1", "inhibition": "inconclusive: 38.4%"}, {"smiles": "NC(=O)[C@@H]1CCCNc2c(F)cc([N+](=O)[O-])cc2C(=O)N[C@@H](CO)C(=O)NCC(=O)N1", "inhibition": "inconclusive: 33.1%"}, {"smiles": "O=C(CSCc1ccccc1Cl)Nc1ccc2c(c1)OCCO2", "inhibition": "inconclusive: 58.2%"}, {"smiles": "COc1ccccc1-c1ccc(NC2CCCCC2)nn1", "inhibition": "inconclusive: 55.9%"}, {"smiles": "Cc1cccc(Nc2ccccc2C(=O)O)c1C", "inhibition": "inconclusive: 53.4%"}, {"smiles": "NNC(=O)C1CC1c1ccc(Cl)cc1", "note": "(configuration not stated)", "inhibition": "inactive: -1.47%"}, {"smiles": "CCCCN(CCCC)S(=O)(=O)c1c(C)[nH]c(=O)[nH]c1=O", "inhibition": "inconclusive: 41.5%"}, {"smiles": "COc1cccc(OCCn2cccc2/C=C2/C(=N)N3OC(C)=CC3=NC2=O)c1", "inhibition": "inactive: 1.07%"}, {"smiles": "O=C(O)/C(=C\\c1cccs1)c1ccc(F)cc1", "inhibition": "inconclusive: 34.4%"}, {"smiles": "COC(=O)c1ccccc1NC(=O)c1sc(N)nc1C", "inhibition": "inconclusive: 61.3%"}, {"smiles": "COc1cccc(CN2CCN(Cc3cccc4nonc34)CC2CCO)c1", "note": "(configuration not stated)", "inhibition": "inactive: -3.03%"}, {"smiles": "O=c1c2c3c(sc2n(CCN2CCCC2)c(=O)n1Cc1ccccc1)CCCCC3", "inhibition": "inconclusive: 34.9%"}, {"smiles": "CCCn1c(SCCC(=O)O)nc2ccccc21", "inhibition": "inconclusive: 35.9%"}, {"smiles": "O=C(O)CC1=C(O)C(=O)N(c2ccccc2)C1c1ccc(Cl)cc1", "note": "(configuration not stated)", "inhibition": "inconclusive: 58.9%"}, {"smiles": "CC(=O)NCCNc1ccc([N+](=O)[O-])cc1C#N", "inhibition": "inconclusive: 58.8%"}, {"smiles": "C[n+]1ccccc1/C=N/O", "inhibition": "inconclusive: 44.1%"}, {"smiles": "COCCNC(=O)C(c1ccc(C)o1)N(Cc1ccccc1)C(=O)Cn1nnc2ccccc21", "note": "(configuration not stated)", "inhibition": "inconclusive: 33.6%"}, {"smiles": "CN1C=CC(=CC=C2C=CC(=O)C=C2)C=C1", "inhibition": "inconclusive: 33%"}, {"smiles": "O=c1[nH]ncc(NCc2ccc(Cl)cc2)c1Cl", "inhibition": "inconclusive: 38.2%"}, {"smiles": "CCOc1ccc(NC(=O)CCC(=O)O)cc1", "inhibition": "inconclusive: 57.3%"}, {"smiles": "NNC(=O)c1ccc(CSc2nc3ccccc3[nH]2)cc1", "inhibition": "inconclusive: 54.9%"}, {"smiles": "Cc1cccc(N(Cc2ccccc2)C(=O)CCl)c1", "inhibition": "inconclusive: 41.4%"}, {"smiles": "CNC(=S)NNC(=O)Cn1ccc(C)n1", "inhibition": "inconclusive: 35.6%"}, {"smiles": "COc1ccc(C(CNC(=O)COc2ccc(-c3ccccc3)cc2)N2CCOCC2)cc1", "note": "(configuration not stated)", "inhibition": "inconclusive: 59.7%"}, {"smiles": "O=C(Nc1ccnn1C1CCN(Cc2ccc(C#CCCO)cc2)CC1)c1cccc(F)c1", "inhibition": "inactive: 4.84%"}, {"smiles": "Oc1csc(Cc2nc(-c3ccc4ccccc4c3)cs2)n1", "inhibition": "inconclusive: 35.2%"}, {"smiles": "COc1ccc(/C=N/NC(=O)c2ccccc2F)cc1CN1CCN(c2ccc(F)cc2)CC1", "inhibition": "inconclusive: 38.6%"}, {"smiles": "CC(=O)N/C(=C/c1ccc2c(c1)OCO2)C(=O)NCC(=O)O", "inhibition": "inconclusive: 35%"}, {"smiles": "N#CC1=C(N)OC2=C(C(=O)CCC2)C12C(=O)N1CCCc3cccc2c31", "note": "(configuration not stated)", "inhibition": "inconclusive: 36.9%"}, {"smiles": "CCn1c(=O)c([N+](=O)[O-])c(N2CCSCC2)c2ccccc21", "inhibition": "inconclusive: 49.2%"}, {"smiles": "NC(=O)c1sc2nc3c(c(-c4ccco4)c2c1N)CCC3", "inhibition": "inconclusive: 37.6%"}, {"smiles": "Nc1cc(=O)[nH]c(SCC(=O)Nc2nc3ccc([N+](=O)[O-])cc3s2)n1", "inhibition": "inconclusive: 38.9%"}, {"smiles": "Cn1c(SCC(=O)CC(=O)Nc2ccccc2)nnc1-c1ccc(O)cc1", "inhibition": "inconclusive: 37.7%"}, {"smiles": "OCCNC(=S)Nc1ccc2c(c1)OCCO2", "inhibition": "inconclusive: 33%"}, {"smiles": "CCOc1ccc(C2C(C(=O)c3cccs3)=C(O)C(=O)N2Cc2cccnc2)cc1", "note": "(configuration not stated)", "inhibition": "inconclusive: 41.4%"}, {"smiles": "COc1ccccc1Nc1nc(-c2sc(N)nc2C)cs1", "inhibition": "inconclusive: 42.6%"}]}]}
